Results taken from patent CN105367660A.
These are yes or no findings as the source states them, for the method shown. Some results given as binding are weak or reduced against the parent protein; the word gives no strength.

Chains of the proteins cited; added tags and fusions are not shown. Residues count along the entry.
UniProt P08637, residues 17-254: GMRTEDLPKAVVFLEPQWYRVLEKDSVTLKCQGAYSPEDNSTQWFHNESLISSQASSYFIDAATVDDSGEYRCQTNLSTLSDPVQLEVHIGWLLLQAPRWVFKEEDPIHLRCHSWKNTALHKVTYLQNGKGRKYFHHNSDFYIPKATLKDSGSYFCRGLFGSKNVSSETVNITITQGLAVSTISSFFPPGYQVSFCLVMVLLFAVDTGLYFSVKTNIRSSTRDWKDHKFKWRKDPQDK

Molecular target: CD16A抗原 (UniProt P08637)
Assay: flow cytometry on CD16A-positive NK cells, 10 nM bispecific antibody, biotin goat anti-human IgG F(ab')2-specific antibody and PE-streptavidin

B1: 抗CD16A抗原和抗MUC1抗原的双特异性抗体 (bispecific antibody, not shown: a dimerising Fc or GST)
chain: DTVLTQSPASLAVSLGQRATISCKASQSVDFDGHSFMNWYQQKPGQPPKLLIYTTSNLESGIPASFSASGSGTDFTLNIHPVEEEDTATYYCQQSNEDPYTFGGGTKLEIKGGGGSQMQLVQSGAEVKKPGASVKVSCKASGYTFTGHYMHWVRQAPGQGLEWMGWIDPVTGGTKYAQNFQGWVTMTRDTSIRTAYMELSRLRSDDTAMYYCAREVTGDRGQFDKWGQGTLVTVASGGGGSGGGGSCPPCPGGGGSQSVLTQPPSVSVAPGKTARITCGGNNIGSKSVHWYQQKPGQAPVLVIYYDSDRPSGIPERFSGSNSGNTATLTISRVEAGDEADYYCQVWDSSSDWVFGGGTKLTVLGGGGSQVTLRESGPALVKPTQTLTLTCTFSGFSLSTSGMGVGWIRQPPGKALEWLAHIWWDDDKRYNPALKSRLTISKDTSKNQVVLTMTNMDPVDTATYYCARINPAWFAYWGQGTLVTVSS
B1 was tested, and the binding was “binds”.
